Reference: article doi:10.1101/2024.02.08.579500

Amino acid sequences for entries named in this document (tags omitted).
UniProt P09884: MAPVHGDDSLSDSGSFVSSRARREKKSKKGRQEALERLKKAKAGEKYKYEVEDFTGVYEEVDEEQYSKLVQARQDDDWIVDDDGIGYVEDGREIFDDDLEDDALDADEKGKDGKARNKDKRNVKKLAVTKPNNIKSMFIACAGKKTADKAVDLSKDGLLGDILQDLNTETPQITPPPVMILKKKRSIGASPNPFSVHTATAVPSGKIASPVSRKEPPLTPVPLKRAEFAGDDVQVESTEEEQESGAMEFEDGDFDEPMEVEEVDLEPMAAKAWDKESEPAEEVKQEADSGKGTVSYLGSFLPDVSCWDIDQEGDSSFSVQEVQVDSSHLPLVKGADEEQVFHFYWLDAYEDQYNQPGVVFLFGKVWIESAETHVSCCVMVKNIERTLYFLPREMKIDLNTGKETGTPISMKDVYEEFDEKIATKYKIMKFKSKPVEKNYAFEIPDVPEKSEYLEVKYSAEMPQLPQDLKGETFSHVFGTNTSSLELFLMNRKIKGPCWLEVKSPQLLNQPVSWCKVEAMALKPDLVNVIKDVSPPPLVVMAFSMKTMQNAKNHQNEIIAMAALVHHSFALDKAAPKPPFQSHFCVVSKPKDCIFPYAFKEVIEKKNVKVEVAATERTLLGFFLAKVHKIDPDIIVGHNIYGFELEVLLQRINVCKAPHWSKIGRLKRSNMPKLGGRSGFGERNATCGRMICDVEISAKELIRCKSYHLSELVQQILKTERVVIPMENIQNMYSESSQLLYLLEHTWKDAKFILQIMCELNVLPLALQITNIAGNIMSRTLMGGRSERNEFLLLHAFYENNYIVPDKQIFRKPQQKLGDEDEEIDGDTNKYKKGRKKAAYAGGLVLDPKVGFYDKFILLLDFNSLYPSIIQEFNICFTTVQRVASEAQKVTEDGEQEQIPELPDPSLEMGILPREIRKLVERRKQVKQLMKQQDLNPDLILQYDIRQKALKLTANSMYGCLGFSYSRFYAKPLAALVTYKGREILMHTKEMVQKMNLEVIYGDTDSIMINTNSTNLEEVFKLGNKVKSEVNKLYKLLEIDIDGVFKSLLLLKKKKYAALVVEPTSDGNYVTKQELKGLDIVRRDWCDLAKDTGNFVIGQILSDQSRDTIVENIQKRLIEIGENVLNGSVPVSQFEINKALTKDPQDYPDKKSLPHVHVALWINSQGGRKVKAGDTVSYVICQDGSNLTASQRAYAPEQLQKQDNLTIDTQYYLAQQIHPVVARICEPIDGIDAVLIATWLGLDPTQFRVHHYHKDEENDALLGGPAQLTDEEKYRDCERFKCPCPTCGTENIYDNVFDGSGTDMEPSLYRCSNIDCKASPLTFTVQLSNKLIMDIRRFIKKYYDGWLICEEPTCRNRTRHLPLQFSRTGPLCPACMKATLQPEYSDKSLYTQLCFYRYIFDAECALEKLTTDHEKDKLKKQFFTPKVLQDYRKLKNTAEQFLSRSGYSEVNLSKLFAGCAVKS
UniProt P15927: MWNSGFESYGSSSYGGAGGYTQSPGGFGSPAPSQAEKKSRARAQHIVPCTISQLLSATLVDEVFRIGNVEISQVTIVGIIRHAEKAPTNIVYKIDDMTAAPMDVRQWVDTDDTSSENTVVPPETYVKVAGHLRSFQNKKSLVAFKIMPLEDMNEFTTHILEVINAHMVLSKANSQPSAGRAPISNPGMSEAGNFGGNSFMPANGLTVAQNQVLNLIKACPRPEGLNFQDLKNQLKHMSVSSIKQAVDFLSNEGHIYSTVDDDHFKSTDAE
UniProt P27694: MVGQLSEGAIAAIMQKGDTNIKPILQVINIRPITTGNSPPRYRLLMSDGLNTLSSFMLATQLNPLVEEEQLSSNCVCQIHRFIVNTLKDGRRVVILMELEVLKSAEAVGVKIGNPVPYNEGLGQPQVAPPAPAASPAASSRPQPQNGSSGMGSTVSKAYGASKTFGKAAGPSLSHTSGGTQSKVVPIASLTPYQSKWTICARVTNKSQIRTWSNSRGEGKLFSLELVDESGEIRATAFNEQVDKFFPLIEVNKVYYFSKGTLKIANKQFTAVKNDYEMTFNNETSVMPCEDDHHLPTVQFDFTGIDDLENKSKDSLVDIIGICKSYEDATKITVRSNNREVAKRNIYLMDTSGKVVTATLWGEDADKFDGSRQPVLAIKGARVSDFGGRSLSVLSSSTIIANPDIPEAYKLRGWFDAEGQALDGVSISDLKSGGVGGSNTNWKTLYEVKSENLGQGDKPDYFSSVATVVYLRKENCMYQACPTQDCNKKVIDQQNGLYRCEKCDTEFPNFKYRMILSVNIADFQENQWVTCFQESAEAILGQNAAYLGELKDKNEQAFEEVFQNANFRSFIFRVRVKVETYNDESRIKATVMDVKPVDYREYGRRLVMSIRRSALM

Key:
[1] = molecular target: DNA polymerase alpha catalytic subunit POLA1 (human (endogenous in HEK293T)) (UniProt P09884); test: affinity purification with mass spectrometry
[2] = molecular target: DNA polymerase alpha catalytic subunit POLA1 (human (endogenous in HEK293T)) (UniProt P09884); test: affinity purification with mass spectrometry; remark: listed apart in the source

Molecule: Replication protein A 32 kDa subunit RPA2 (from UniProt P15927 1-270)
binding [1]: binds

B1: Primase subunit PRIM1 (protein, UniProt P49642 1-420)
chain: METFDPTELPELLKLYYRRLFPYSQYYRWLNYGGVIKNYFQHREFSFTLKDDIYIRYQSFNNQSDLEKEMQKMNPYKIDIGAVYSHRPNQHNTVKLGAFQAQEKELVFDIDMTDYDDVRRCCSSADICPKCWTLMTMAIRIIDRALKEDFGFKHRLWVYSGRRGVHCWVCDESVRKLSSAVRSGIVEYLSLVKGGQDVKKKVHLSEKIHPFIRKSINIIKKYFEEYALVNQDILENKESWDKILALVPETIHDELQQSFQKSHNSLQRWEHLKKVASRYQNNIKNDKYGPWLEWEIMLQYCFPRLDINVSKGINHLLKSPFSVHPKTGRISVPIDLQKVDQFDPFTVPTISFICRELDAISTNEEEKEENEAESDVKHRTRDYKKTSLAPYVKVFEHFLENLDKSRKGELLKKSDLQKDF
binding [2]: binds

B2: MCM3 (protein, UniProt P25205 1-808)
chain: MAGTVVLDDVELREAQRDYLDFLDDEEDQGIYQSKVRELISDNQYRLIVNVNDLRRKNEKRANRLLNNAFEELVAFQRALKDFVASIDATYAKQYEEFYVGLEGSFGSKHVSPRTLTSCFLSCVVCVEGIVTKCSLVRPKVVRSVHYCPATKKTIERRYSDLTTLVAFPSSSVYPTKDEENNPLETEYGLSVYKDHQTITIQEMPEKAPAGQLPRSVDVILDDDLVDKAKPGDRVQVVGTYRCLPGKKGGYTSGTFRTVLIACNVKQMSKDAQPSFSAEDIAKIKKFSKTRSKDIFDQLAKSLAPSIHGHDYVKKAILCLLLGGVERDLENGSHIRGDINILLIGDPSVAKSQLLRYVLCTAPRAIPTTGRGSSGVGLTAAVTTDQETGERRLEAGAMVLADRGVVCIDEFDKMSDMDRTAIHEVMEQGRVTIAKAGIHARLNARCSVLAAANPVYGRYDQYKTPMENIGLQDSLLSRFDLLFIMLDQMDPEQDREISDHVLRMHRYRAPGEQDGDAMPLGSAVDILATDDPNFSQEDQQDTQIYEKHDNLLHGTKKKKEKMVSAAFMKKYIHVAKIIKPVLTQESATYIAEEYSRLRSQDSMSSDTARTSPVTARTLETLIRLATAHAKARMSKTVDLQDAEEAVELVQYAYFKKVLEKEKKRKKRSEDESETEDEEEKSQEDQEQKRKRRKTRQPDAKDGDSYDPYDFSDTEEEMPQVHTPKTADSQETKESQKVELSESRLKAFKVALLDVFREAHAQSIGMNRLTESINRDSEEPFSSVEIQAALSKMQDDNQVMVSEGIIFLI
binding [2]: binds

Continued, values first:

binding [1]: binds
Molecule: Replication protein A 70 kDa subunit RPA1 (from UniProt P27694 1-616)

binding [2]: binds
B3: MCM5 (protein, UniProt P33992 1-734)
chain: MSGFDDPGIFYSDSFGGDAQADEGQARKSQLQRRFKEFLRQYRVGTDRTGFTFKYRDELKRHYNLGEYWIEVEMEDLASFDEDLADYLYKQPAEHLQLLEEAAKEVADEVTRPRPSGEEVLQDIQVMLKSDASPSSIRSLKSDMMSHLVKIPGIIIAASAVRAKATRISIQCRSCRNTLTNIAMRPGLEGYALPRKCNTDQAGRPKCPLDPYFIMPDKCKCVDFQTLKLQELPDAVPHGEMPRHMQLYCDRYLCDKVVPGNRVTIMGIYSIKKFGLTTSRGRDRVGVGIRSSYIRVLGIQVDTDGSGRSFAGAVSPQEEEEFRRLAALPNVYEVISKSIAPSIFGGTDMKKAIACLLFGGSRKRLPDGLTRRGDINLLMLGDPGTAKSQLLKFVEKCSPIGVYTSGKGSSAAGLTASVMRDPSSRNFIMEGGAMVLADGGVVCIDEFDKMREDDRVAIHEAMEQQTISIAKAGITTTLNSRCSVLAAANSVFGRWDETKGEDNIDFMPTILSRFDMIFIVKDEHNEERDVMLAKHVITLHVSALTQTQAVEGEIDLAKLKKFIAYCRVKCGPRLSAEAAEKLKNRYIIMRSGARQHERDSDRRSSIPITVRQLEAIVRIAEALSKMKLQPFATEADVEEALRLFQVSTLDAALSGTLSGVEGFTSQEDQEMLSRIEKQLKRRFAIGSQVSEHSIIKDFTKQKYPEHAIHKVLQLMLRRGEIQHRMQRKVLYRLK

Like-named read-outs stand apart in the source and are kept apart here. No constants are given. Whether binding was seen depends on the method and setting. Binding seen in cells or lysates may run through a third protein. A yes stands for co-enrichment or nearness to the bait. Other partners may have been found. One block for each molecule: values may come before it.
